Values from PubChem BioAssay AID1259425 (University of Nebraska Medical Center, 2018)
Test: 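Seek colon cancer weak points whose silencing resembles KSR1 loss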 (primary screen). System: HCT116 human colon cancer cells. Reagent: siRNA pool against human genes, 50 nM siRNA. Measurement: 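mRNA of six signature genes measured together by branched-DNA assay after 50 nM siRNA pool, blank removed, divided by geometric mean of two housekeeping genes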. Reading the numbers: BNIP3L mRNA: higher = more BNIP3L transcript after knockdown; NDRG1 mRNA: higher = more NDRG1 transcript after knockdown.
The whole screen tested about 14,000 reagents; this is a part drawn at random. Some reagents were tested in more than one well and are listed for each. Not all columns of the deposit are shown. Not given: the time to read-out.

gene symbol	PubChem SID	BNIP3L mRNA, set 1	NDRG1 mRNA, set 1
OPA3	SID364003266	0.0724	0.129
NDUFA12	SID364001214	0.0856	0.0546
YPEL3	SID364003657	0.166	0.316
TAOK2	SID363995739	0.061	0.0946
TAOK2	SID363995739	0.0512	0.125
PRKCZ	SID363993902	0.204	0.919
SUGP1	SID364004811	0.0892	0.0625
CHTOP	SID363999601	0.091	0.232
SST	SID363992345	0.366	0.664
SLCO2B1	SID363997947	0.16	0.138
CCDC106	SID363998418	0.0294	0.165
ADAMTS3	SID363998681	0.0627	0.14
NKG7	SID363996496	0.182	0.243
ATF7IP2	SID364003201	0.168	0.356
ABCA8	SID363997868	0.225	0.797

Continued, starting with the last 3 of the part before.
gene symbol	PubChem SID	BNIP3L mRNA, set 1	NDRG1 mRNA, set 1
NKG7	SID363996496	0.182	0.243
ATF7IP2	SID364003201	0.168	0.356
ABCA8	SID363997868	0.225	0.797
HEATR6	SID364002305	0.131	0.29
MYCBP	SID363998243	0.0914	0.0968
BCL2L14	SID364003420	0.102	0.317
STUB1	SID363996735	0.0981	0.0839
PPP2CB	SID363995160	0.0722	0.129
PPIC	SID363992227	0.112	0.476
ADAMTS17	SID364004593	0.0424	0.587
FUBP3	SID364005592	0.12	0.116
HMGN1	SID363995907	0.162	0.1
HCST	SID363998701	0.0602	0.241
RHAG	SID363991656	0.084	0.28
PRKAB1	SID363997076	0.11	0.556
UBE2G1	SID363994458	0.0903	0.071
TMEM234	SID364001415	0.13	0.196
MIA	SID363997327	0.0503	0.099
COPS8	SID363997490	0.167	0.383
CAPN10	SID364002127	0.108	0.423
LLGL1	SID363995150	0.151	0.211
PTBP3	SID363996084	0.147	0.371
